Compound in the assay: CN[C@@H]1C[C@H]2O[C@@](C)([C@@H]1OC)n1c3ccccc3c3c4c(c5c6ccccc6n2c5c31)C(=O)NC4 [staurosporine]
In words: log2 fold change of tryptic peptide abundance, ligand vs vehicle (limited proteolysis) (log2 ratio); higher = more trypsin-susceptible (destabilized). The following applies: ligand concentration: 20 uM; sample: mouse liver crude lysate; replicate design: treated separately.

By UniProt entry, the sequences of proteins in these tests, tags left out. Where a name states a change or a piece, a line headed by the entry shows the natural chain unless it says otherwise.
UniProt A2AJB2: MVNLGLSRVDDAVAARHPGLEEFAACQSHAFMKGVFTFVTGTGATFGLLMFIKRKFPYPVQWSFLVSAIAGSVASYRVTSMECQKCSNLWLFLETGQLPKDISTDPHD
UniProt A2AQ25: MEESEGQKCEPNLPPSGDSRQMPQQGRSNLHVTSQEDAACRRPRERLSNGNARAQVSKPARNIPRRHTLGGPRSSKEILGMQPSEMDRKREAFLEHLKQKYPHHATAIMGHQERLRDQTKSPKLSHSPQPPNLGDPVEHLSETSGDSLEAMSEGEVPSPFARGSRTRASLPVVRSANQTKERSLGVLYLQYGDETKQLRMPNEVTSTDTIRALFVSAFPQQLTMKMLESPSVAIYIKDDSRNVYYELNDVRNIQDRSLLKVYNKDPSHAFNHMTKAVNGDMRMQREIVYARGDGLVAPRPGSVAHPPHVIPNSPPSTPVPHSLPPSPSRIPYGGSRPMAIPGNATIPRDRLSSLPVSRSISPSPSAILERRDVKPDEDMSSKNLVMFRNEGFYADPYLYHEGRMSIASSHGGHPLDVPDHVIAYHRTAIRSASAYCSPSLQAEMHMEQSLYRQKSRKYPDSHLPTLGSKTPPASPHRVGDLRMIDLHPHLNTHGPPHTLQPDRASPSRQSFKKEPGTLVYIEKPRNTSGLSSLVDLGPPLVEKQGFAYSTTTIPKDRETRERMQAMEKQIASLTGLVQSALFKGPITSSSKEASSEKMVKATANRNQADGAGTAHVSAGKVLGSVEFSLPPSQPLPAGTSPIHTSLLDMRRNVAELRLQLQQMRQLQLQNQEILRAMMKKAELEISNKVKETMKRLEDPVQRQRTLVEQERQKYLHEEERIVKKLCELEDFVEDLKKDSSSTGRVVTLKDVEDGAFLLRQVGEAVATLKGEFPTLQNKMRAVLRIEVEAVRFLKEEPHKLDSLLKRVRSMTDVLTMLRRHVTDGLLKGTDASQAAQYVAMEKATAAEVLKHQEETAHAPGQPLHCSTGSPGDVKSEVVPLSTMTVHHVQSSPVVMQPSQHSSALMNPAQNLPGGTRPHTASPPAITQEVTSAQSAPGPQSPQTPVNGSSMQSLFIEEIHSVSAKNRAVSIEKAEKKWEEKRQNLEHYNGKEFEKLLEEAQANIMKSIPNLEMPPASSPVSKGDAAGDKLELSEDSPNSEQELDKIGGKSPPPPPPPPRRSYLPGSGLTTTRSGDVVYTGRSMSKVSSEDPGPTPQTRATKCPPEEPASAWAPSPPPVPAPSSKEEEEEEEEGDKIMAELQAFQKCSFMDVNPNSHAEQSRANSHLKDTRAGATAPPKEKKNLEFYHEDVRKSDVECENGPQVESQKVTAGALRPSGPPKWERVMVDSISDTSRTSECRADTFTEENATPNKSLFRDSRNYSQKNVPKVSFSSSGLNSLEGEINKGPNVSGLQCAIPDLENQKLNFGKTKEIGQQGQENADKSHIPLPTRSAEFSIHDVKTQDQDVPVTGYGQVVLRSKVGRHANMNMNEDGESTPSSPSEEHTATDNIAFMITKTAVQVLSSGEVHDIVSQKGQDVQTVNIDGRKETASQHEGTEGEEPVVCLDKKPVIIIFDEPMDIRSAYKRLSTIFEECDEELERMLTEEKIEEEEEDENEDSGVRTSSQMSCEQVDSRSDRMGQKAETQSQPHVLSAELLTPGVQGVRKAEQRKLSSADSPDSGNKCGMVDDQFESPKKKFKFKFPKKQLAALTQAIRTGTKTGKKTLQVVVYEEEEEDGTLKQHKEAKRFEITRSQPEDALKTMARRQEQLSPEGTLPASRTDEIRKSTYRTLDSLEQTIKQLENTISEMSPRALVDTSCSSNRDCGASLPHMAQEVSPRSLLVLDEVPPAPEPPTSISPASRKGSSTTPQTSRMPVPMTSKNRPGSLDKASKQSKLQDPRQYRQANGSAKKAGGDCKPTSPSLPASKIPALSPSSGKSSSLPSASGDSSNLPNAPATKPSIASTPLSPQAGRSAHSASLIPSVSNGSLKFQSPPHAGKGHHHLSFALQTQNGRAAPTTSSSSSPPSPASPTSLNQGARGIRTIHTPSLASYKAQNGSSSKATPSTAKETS
UniProt A2AJK6: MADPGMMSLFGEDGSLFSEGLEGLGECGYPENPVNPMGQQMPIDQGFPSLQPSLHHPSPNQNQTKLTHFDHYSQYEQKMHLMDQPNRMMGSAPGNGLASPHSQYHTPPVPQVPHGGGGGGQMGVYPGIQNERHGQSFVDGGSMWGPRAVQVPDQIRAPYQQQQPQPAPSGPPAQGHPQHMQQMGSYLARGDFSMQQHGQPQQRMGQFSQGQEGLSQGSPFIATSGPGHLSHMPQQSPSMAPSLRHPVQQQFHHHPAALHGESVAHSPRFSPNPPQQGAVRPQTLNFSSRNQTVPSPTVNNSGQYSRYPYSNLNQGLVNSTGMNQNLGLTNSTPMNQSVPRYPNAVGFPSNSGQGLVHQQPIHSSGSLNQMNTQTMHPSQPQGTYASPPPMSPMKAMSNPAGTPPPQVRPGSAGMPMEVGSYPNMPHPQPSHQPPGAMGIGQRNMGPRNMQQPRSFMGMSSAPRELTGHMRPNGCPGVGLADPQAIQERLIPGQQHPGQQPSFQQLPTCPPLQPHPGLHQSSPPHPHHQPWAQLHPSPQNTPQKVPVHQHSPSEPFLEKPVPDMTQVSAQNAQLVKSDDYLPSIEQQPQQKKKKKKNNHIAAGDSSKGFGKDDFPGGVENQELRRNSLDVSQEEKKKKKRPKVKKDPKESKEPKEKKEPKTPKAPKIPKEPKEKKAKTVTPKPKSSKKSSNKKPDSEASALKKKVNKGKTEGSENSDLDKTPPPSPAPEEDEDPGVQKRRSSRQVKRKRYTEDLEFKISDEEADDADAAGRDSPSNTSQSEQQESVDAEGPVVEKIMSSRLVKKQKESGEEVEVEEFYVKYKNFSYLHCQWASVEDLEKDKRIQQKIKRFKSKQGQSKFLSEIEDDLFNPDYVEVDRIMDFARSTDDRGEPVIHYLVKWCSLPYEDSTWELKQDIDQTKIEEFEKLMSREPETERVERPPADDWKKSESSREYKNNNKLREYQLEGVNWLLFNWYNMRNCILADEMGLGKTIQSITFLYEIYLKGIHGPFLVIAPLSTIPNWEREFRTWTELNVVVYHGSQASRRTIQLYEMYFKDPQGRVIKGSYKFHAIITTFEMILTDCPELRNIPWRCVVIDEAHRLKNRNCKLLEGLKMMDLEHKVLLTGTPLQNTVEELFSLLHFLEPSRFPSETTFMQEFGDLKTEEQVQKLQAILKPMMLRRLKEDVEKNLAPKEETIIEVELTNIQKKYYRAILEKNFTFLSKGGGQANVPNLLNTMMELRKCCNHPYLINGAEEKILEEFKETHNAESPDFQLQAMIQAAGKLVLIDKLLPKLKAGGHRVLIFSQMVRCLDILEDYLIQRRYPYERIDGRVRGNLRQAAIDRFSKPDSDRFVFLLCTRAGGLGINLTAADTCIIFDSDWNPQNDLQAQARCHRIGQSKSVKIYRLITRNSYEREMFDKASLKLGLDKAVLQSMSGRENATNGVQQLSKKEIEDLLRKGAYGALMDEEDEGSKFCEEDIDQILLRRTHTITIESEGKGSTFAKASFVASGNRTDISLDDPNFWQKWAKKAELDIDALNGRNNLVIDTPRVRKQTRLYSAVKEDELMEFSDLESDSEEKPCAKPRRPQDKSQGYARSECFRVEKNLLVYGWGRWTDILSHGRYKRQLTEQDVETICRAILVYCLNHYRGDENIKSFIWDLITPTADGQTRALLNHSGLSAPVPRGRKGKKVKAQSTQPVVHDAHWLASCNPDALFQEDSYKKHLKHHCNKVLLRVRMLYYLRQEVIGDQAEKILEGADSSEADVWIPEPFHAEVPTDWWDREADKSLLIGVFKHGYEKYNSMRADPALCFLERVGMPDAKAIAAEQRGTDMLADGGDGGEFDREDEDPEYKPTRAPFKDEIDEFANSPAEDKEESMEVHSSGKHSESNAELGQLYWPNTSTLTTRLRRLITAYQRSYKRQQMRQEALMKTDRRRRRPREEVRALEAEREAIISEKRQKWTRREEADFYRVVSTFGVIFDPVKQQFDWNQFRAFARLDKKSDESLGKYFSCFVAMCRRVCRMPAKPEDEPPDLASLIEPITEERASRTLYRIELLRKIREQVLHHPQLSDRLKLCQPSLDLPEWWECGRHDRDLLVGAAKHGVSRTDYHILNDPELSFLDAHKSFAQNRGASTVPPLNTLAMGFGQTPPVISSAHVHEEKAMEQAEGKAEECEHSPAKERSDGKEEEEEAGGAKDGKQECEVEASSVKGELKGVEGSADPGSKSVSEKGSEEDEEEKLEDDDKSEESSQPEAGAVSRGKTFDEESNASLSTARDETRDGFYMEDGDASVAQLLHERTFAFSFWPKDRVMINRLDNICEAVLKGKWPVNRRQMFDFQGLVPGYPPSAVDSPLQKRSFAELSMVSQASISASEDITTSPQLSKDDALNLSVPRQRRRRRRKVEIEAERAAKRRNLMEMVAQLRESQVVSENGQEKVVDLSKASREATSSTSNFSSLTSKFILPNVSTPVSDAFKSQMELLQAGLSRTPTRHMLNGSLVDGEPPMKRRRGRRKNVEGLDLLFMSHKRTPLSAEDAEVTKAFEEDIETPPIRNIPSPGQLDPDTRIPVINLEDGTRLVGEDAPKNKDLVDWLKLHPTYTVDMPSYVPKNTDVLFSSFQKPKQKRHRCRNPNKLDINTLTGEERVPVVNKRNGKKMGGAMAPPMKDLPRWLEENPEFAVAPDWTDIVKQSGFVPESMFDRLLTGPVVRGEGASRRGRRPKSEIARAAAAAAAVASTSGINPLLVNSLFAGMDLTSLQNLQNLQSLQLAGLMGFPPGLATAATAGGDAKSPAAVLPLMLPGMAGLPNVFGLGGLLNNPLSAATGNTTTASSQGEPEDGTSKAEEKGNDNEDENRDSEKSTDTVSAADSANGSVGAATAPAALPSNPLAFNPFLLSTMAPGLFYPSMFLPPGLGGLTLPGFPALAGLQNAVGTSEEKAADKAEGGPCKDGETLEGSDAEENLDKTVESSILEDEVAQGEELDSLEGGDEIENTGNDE
UniProt A1L314: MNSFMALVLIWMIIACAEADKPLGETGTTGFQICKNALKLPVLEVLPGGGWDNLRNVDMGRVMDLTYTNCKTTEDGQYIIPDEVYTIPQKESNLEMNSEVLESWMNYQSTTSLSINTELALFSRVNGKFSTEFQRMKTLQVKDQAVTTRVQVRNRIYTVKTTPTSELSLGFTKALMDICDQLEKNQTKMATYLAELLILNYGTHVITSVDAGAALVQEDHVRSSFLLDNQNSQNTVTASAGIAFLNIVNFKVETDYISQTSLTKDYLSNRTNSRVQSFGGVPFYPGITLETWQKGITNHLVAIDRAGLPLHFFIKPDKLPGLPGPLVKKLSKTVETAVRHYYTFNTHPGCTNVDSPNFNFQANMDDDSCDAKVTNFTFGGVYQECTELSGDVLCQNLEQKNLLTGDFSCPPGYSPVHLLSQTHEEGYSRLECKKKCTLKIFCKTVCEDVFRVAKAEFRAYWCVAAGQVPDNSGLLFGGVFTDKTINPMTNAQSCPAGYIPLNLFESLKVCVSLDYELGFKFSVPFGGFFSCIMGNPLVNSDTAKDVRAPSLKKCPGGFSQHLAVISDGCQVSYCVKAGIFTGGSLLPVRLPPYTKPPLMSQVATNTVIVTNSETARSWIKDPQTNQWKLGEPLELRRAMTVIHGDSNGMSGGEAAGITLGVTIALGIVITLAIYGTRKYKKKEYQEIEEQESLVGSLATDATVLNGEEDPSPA
UniProt B1ARW8: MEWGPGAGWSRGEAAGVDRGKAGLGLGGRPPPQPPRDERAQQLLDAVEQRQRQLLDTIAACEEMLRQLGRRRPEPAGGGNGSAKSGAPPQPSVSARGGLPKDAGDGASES
UniProt A3KGF9: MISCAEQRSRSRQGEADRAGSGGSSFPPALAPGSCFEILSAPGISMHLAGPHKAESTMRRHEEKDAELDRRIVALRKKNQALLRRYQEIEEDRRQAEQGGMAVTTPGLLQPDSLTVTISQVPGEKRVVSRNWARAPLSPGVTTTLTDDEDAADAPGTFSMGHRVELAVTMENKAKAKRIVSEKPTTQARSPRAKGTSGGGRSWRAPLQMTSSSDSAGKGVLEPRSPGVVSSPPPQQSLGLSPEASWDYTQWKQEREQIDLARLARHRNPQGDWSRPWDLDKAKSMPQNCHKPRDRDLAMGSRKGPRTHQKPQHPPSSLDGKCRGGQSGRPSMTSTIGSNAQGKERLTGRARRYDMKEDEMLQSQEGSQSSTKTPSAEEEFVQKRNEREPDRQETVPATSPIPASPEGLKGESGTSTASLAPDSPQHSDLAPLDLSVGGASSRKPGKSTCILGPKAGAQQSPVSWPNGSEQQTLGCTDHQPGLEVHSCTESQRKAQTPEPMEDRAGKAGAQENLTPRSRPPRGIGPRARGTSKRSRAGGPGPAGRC

This is one part of the list. Most values lie at the level of the controls, where differences are scatter.

Take “UniProt A2AJB2 (peptide sequence: DISTDPHD, peptide start residue: 101)”: the log2 fold change was -0.0996.
In the case of “UniProt A2AQ25 (peptide sequence: TLDSLEQTIK, peptide start residue: 1667)”, the log2 fold change was -0.191.
On to “UniProt A2AJK6 (peptide sequence: KCCNHPYLINGAEEK, peptide start residue: 1095)”, for which the log2 fold change was -0.667.
As to “UniProt A2A7S8 (peptide sequence: ASPVTAPSSGLHAAVR, peptide start residue: 841)”, the log2 fold change was -0.137.
As to “UniProt A2A699 (peptide sequence: AWFVSLDGR, peptide start residue: 650)”, the log2 fold change is -0.218.
Consider “UniProt A2AJ88 (peptide sequence: SCSVPLPSNHGEVDELR, peptide start residue: 377)”, for which the log2 fold change is -0.29.
With “UniProt A2APT9 (peptide sequence: LIPGVGGSCVGDK, peptide start residue: 172)”, the log2 fold change is -0.0808.
Next, “UniProt A1L314 (peptide sequence: SWIKDPQTNQWK, peptide start residue: 617)”: -0.16.
For “UniProt A3KMP2 (peptide sequence: SLRDCQAWK, peptide start residue: 2)”, the log2 fold change was -0.491.
Consider “A0A140LIF8 (peptide sequence: EIIQNVSR, peptide start residue: 55), A0A140LIF8”, for which the log2 fold change is -0.204.
On to “UniProt A2ASZ8 (peptide sequence: ITLGVQSR, peptide start residue: 462)”, for which the log2 fold change was -0.398.
As to “UniProt A2AIV8 (peptide sequence: LKEECELSSAELKR, peptide start residue: 164)”, the log2 fold change amounted to 0.421.
Next, “A0A571BF63 (peptide sequence: RMKTGFEHAR, peptide start residue: 398), A0A571BF63”: -0.0515; “UniProt A2AGH6 (peptide sequence: AAFGILSYEHRPLKR, peptide start residue: 2)”: 0.254; “UniProt A3KFM7 (peptide sequence: NFSYLHCK, peptide start residue: 323)”: -0.93.
With “UniProt A2AUY4 (peptide sequence: ALQKQIQK, peptide start residue: 1663)”, the log2 fold change is -0.799.
Consider “UniProt A1L3P4 (peptide sequence: RFMGNSSEDALDR, peptide start residue: 652)”, for which the log2 fold change was -0.138.
Next, “UniProt A2CG63 (peptide sequence: KYNGLEEK, peptide start residue: 880)”: -0.607; “UniProt A7XV04 (peptide sequence: GGHKMSEEAAPEYANR, peptide start residue: 78)”: -0.291.
As to “UniProt A2AAE1 (peptide sequence: TQHLSLQVPLR, peptide start residue: 1215)”, the log2 fold change is 0.591.
With “UniProt A2A9C3 (peptide sequence: AAAHIHSSSGRPTCLR, peptide start residue: 1722)”, the log2 fold change turned out to be 0.809.
For “UniProt B1ARW8 (peptide sequence: AGLGLGGRPPPQPPRDER, peptide start residue: 22)”, the log2 fold change is 0.138.
For the target “UniProt A2AH22 (peptide sequence: TVGVAFNQETGHWER, peptide start residue: 646)”, the log2 fold change was -0.492.
On to “UniProt A2AL36 (peptide sequence: SEVKDEIR, peptide start residue: 2165)”, for which the log2 fold change is 0.54.
As for “UniProt B1AXH1 (peptide sequence: EAATLFVTR, peptide start residue: 436)”, the log2 fold change is -0.448.
Turning to “UniProt A2AG58 (peptide sequence: QDADFNQTK, peptide start residue: 519)”, the log2 fold change amounted to 0.426.
In the case of “UniProt A2ALU4 (peptide sequence: CLFDSLQPER, peptide start residue: 1470)”, the log2 fold change turned out to be 0.246.
As to “UniProt A4FUP9 (peptide sequence: LRDHLEAAGHMCVLR, peptide start residue: 22)”, the log2 fold change was determined as 0.228.
Turning to “UniProt A2RSQ0 (peptide sequence: QEHLTDSPVALGPERR, peptide start residue: 816)”, the log2 fold change is 0.471.
On to “UniProt A2A9T0 (peptide sequence: ALVETHLR, peptide start residue: 153)”, for which the log2 fold change was 0.19.
Next, “UniProt A3KGF9 (peptide sequence: TPSAEEEFVQK, peptide start residue: 373)”: 0.778.
